Source: article PMC9102551
Results are given in words; binding and its absence hold for the method and conditions named. In cells and extracts the contact can be indirect. Some binding calls cover weakened binding; strength is not graded here.

Amino acid sequences for entries named in this document (tags omitted). A change or cut given only in a name is not applied to a line headed by its entry. Chains listed by the source or under a name are the forms on record and can include a tag or linker.
UniProt Q7Z2W7: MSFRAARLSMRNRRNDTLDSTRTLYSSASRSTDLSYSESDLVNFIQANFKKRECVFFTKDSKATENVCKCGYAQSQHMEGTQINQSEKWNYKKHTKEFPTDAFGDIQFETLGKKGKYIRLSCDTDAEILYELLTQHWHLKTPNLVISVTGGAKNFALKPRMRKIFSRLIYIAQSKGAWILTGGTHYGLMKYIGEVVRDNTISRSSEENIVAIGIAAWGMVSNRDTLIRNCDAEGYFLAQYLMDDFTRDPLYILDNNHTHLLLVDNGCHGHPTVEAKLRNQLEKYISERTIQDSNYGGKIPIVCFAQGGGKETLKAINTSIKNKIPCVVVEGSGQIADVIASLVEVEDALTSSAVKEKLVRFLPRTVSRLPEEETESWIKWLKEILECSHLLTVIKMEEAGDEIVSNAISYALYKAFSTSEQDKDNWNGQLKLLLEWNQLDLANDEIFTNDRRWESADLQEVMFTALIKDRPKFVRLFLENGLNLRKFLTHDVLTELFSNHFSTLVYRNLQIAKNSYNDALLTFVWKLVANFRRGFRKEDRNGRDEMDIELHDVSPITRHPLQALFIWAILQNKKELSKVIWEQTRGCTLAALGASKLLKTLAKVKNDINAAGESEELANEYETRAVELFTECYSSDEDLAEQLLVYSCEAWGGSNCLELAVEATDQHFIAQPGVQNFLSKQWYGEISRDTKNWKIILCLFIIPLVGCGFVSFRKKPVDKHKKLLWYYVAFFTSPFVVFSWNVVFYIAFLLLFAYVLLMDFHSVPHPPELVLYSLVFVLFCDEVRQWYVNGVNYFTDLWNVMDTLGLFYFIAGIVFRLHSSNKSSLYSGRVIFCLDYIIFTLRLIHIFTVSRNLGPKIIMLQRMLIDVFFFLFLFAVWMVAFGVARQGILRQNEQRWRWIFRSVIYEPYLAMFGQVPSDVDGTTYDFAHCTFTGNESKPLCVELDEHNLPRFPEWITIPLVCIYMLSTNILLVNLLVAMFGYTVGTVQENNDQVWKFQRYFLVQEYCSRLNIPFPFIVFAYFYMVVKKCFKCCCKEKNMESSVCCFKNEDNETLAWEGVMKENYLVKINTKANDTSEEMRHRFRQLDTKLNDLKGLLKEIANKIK
GFP-Rap1A S17N (GFP-Rap1 N17) (P62834, form named): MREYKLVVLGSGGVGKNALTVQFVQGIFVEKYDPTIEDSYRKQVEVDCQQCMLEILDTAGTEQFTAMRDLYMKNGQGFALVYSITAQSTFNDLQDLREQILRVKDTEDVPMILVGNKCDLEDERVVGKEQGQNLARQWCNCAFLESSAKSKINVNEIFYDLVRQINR

What was measured:
[1] = target: His-tagged human TRPM8 E207A Y240A (human) (UniProt Q7Z2W7); assay: co-IP; lysates (1% CHAPS) of PC3M8 or PC3 cells transfected with TRPM8 and GFP-Rap1; His-tagged TRPM8 captured on His-Tag Dynabeads overnight at 4 °C in IP buffer (150 mM NaCl, 20 mM NaH2PO4, pH 8); blot with anti-GFP
[2] = target: His-tagged human TRPM8 wild type (His-tagged-hTRPM8pcDNA4) (human) (UniProt Q7Z2W7); assay: as above
[3] = target: His-tagged human TRPM8 E207A Y240A (human) (UniProt Q7Z2W7); assay: proximity ligation; Duolink PLA in fixed PC3 cells overexpressing TRPM8 (wt or E207A Y240A) and Rap1 N17; anti-TRPM8 and anti-GFP primary antibodies; confocal imaging
[4] = target: His-tagged human TRPM8 wild type (His-tagged-hTRPM8pcDNA4) (human) (UniProt Q7Z2W7); assay: as above

- binding [1]: binds
- binding [2]: binds
- binding [3]: binds
- binding [4]: binds
Substance: GFP-Rap1A S17N (GFP-Rap1 N17) (from UniProt P62834 1-167)
